# The campaign covered roughly 360,000 compounds. About 7,500 (2.1%) were called active. This list was built around the results that the source calls inconclusive (neither active nor inactive); the mix of calls is not that of the screen. The call rests on the fitted dose curve; in most records, active means well fitted inhibition curve with a large enough effect; inconclusive means small, poorly fitted or top-dose-only effect, or effect the other way; inactive means flat fitted curve, though single readings scatter. A potency beside an inconclusive call is a rough fit, not a confirmed value.
# Assay: Nrf2 qHTS screen for inhibitors; further: nearly all actives have a fitted effect of over 60% in size
# Details: A549 ARE-Fluc reporter, luciferase luminescence, 18-24 h; activity change, negative = inhibition: at 46 µM (top of the series)
# In short: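 Concentration-response testing used A549 ARE_Fluc cells at 5000 cells/well. Following an 18-24 h compound incubation, viability was read by fluorescence (Ex 405/Em 525) and luciferase output by luminescence.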
# On the % scale 0 is the no-effect control and ±100 the full control effect; potency means the concentration at half of the fitted maximal effect.
SMILES,Potency,"activity change, negative = inhibition"
COc1cc2c(cc1OC)C(COc1ccc([N+](=O)[O-])cc1)N(C(C)=O)CC2 (stereo unspecified),"inconclusive: 4.11 µM [falling, full curve, poor fit]",
COc1ccc(C(=O)NC(=S)N(C)C2CCCCC2)cc1Br,"inconclusive: 20.6 µM [falling, single point]",
CCc1c(C#N)c(SCc2c(C)noc2C)nc2c1C(=O)CC(C)(C)C2,"inconclusive: 18.4 µM [falling, single point]",
O=C(CSc1ncccn1)NCc1ccc(F)cc1,"inconclusive: 29.1 µM [activator, single point]",
COCCNC(=O)c1ccc2c3n(nc2c1)-c1ccccc1CO3,"inconclusive: 18.4 µM [falling, single point]",
O=C1Nc2ccccc2O/C1=C\c1c(F)cccc1Cl,"inconclusive: 29.1 µM [falling, single point]",
CN(C(=O)c1ccco1)c1nc(-c2ccccc2)cs1,"inconclusive: 13 µM [activator, partial curve, poor fit]",
CCOC(=O)c1cc(OC(=O)c2ccc(OC)c(OC)c2)n(-c2ccccc2)n1,,inactive: -1.6%
COc1ccccc1CNC(=O)CCCn1c(=O)c2ccccc2n(Cc2ccccc2F)c1=O,"inconclusive: 13 µM [falling, partial curve]",
CC(=O)Nc1ccc(-c2csc(NCc3ccccc3)n2)cc1,"inconclusive: 2.06 µM [activator, partial curve]",
O=C(CNc1ccc2ccccc2c1)N/N=C/c1cc2ccccc2nc1Cl,,inactive: 13.1%
O=C(NCc1cccs1)c1cc(-c2cccs2)on1,"inconclusive: 4.11 µM [activator, partial curve, poor fit]",
C=CCn1c(SCC(N)=O)nc2scc(-c3ccc(C)o3)c2c1=O,"inconclusive: 11.6 µM [activator, partial curve]",
CCn1c(=O)cc(SCC(=O)N2CCN(c3cc(C)ccc3C)CC2)c2ccccc21,"inconclusive: 20.6 µM [falling, single point]",
CCCCCN(C(=O)CCC(=O)OCc1ccc(Cl)cc1Cl)c1c(N)n(CCCC)c(=O)[nH]c1=O,"inconclusive: 18.4 µM [falling, partial curve]",
Cc1ccc(NC(=O)c2cnc(SCC(=O)c3ccccc3)n(C)c2=O)cc1,"inconclusive: 1.64 µM [activator, full curve]",
Cc1cccc(C(=O)NN2C(=O)C3C(c4ccccc4)C=CC(c4ccccc4)C3C2=O)c1 (stereo unspecified),"inconclusive: 3.26 µM [falling, partial curve, poor fit]",
O=C(Nc1cccc([N+](=O)[O-])c1)Nc1ccc2c(c1)CCC2,"inconclusive: 29.1 µM [falling, single point]",
CCCCN(CC)C(=O)Cn1nc(C)c2c(C)n(-c3ccccc3)nc2c1=O,,inactive: 15.3%
Cc1ccccc1-c1nc(CS(=O)(=O)CC(=O)NCCCN2CCCC2=O)c(C)o1,,inactive: -14.7%
CNC(=O)CSc1ncnc2c1cnn2-c1ccccc1,"inconclusive: 23.1 µM [activator, partial curve]",
CCc1ccc(C(=O)/C=C2\Sc3ccccc3NC2=O)cc1,"inconclusive: 3.26 µM [activator, full curve]",

# Filtered by structure, the compounds so far with a furan ring, fused or not
SMILES,Potency,"activity change, negative = inhibition"
CN(C(=O)c1ccco1)c1nc(-c2ccccc2)cs1,"inconclusive: 13 µM [activator, partial curve, poor fit]",
C=CCn1c(SCC(N)=O)nc2scc(-c3ccc(C)o3)c2c1=O,"inconclusive: 11.6 µM [activator, partial curve]",

# (list continues)

SMILES,Potency,"activity change, negative = inhibition"
O=C(NCCO)/C(=C\c1ccc([N+](=O)[O-])o1)NC(=O)c1ccccc1,"inconclusive: 16.4 µM [falling, partial curve]",
Cc1ccccc1C(=O)N(C)c1ccccc1C(=O)NCc1ccccc1,"inconclusive: 23.1 µM [falling, single point]",
Cn1c(-c2cc3ccccc3oc2=O)nc2ccccc21,"inconclusive: 4.61 µM [activator, full curve]",
Cc1nc(N2N=C3/C(=C/c4ccc(F)cc4)CCCC3C2c2ccc(F)cc2)sc1C(=O)N(C)C (stereo unspecified),"inconclusive: 16.4 µM [falling, single point]",
CCc1ccc(NC(=O)C2CCCN(S(=O)(=O)c3ccc4c(c3)CC(C)N4C(C)=O)C2)cc1 (stereo unspecified),"inconclusive: 16.4 µM [falling, single point]",
CCOC(=O)c1ccc(NC(=O)c2ccco2)cc1,"inconclusive: 6.51 µM [activator, single point]",
Cc1ccc(Nc2nc(-c3cccnc3)cs2)cc1Cl,"inconclusive: 5.17 µM [activator, partial curve]",
C[C@@H]1CC=C[C@H]2[C@H]1C(=O)N(Cc1ccccc1)[C@H]2c1ccc(-c2ccoc2)cc1F,,inactive: -16.8%
COc1ccc(-c2cc(C)no2)cc1S(=O)(=O)N1CCN(c2ccc([N+](=O)[O-])cc2)CC1,"inconclusive: 7.31 µM [falling, full curve, poor fit]",
O=S(=O)(c1ccc(Cl)cc1)c1cnc2ccccc2n1,"inconclusive: 29.1 µM [activator, single point]",
COc1ccc(CN(C(=O)c2ccco2)C2CC(C)N(C)CC2C)cc1 (stereo unspecified),"inconclusive: 13 µM [activator, partial curve, poor fit]",
O=C(/C=C/c1ccco1)NC(=S)Nc1cccc(C(=O)O)c1,"inconclusive: 14.6 µM [activator, partial curve, poor fit]",
CCC(=O)Oc1cccc(C(=O)Nc2ccc(-c3nnc(-c4ccco4)o3)cc2)c1,"inconclusive: 16.4 µM [activator, partial curve, poor fit]",
COC(=O)C1=CN(C2CC2)C=C(C(=O)OC)C1c1ccccc1OC,,inactive: -5.03%
COc1ccc2oc(=O)c(C(=O)Nc3ccccc3C)cc2c1,"inconclusive: 16.4 µM [activator, partial curve]",
CCOc1ccccc1CNC(=O)c1cnc2sc(N3CCC(C)CC3)nn2c1=O,,inactive: 29.6%
Clc1ccccc1-c1nnc2sc(-c3ccncc3)nn12,,inactive: -0.371%
CCc1c(C)nc(SCCOc2ccc(OC)cc2)[nH]c1=O,,inactive: 7.93%
COc1ccc(C(=O)Nc2nnc(S(=O)(=O)N3CCOCC3)s2)cc1,"inconclusive: 23.1 µM [activator, single point]",
COc1ccc(S(=O)(=O)Nc2ccc(C)c(S(=O)(=O)N3CCOCC3)c2)cc1[N+](=O)[O-],,inactive: 20.4%
CCCNC(=O)C(Cc1ccc(I)cc1)NC(=O)c1ccc2ccccc2n1 (stereo unspecified),"inconclusive: 23.1 µM [falling, single point]",
CC(=O)Nc1ccc(S(=O)(=O)NCC(=O)OC(C)c2ccccc2Cl)cc1 (stereo unspecified),,inactive: 9.23%

SMILES,Potency,"activity change, negative = inhibition"
OCC1CCCN(C(=S)Nc2ccc(OC(F)F)cc2)C1 (stereo unspecified),"inconclusive: 5.8 µM [activator, full curve]",
Cc1ccc(NC(=O)CCC(=O)N2CCOc3ccccc32)c(Cl)c1,"inconclusive: 29.1 µM [falling, single point]",
C=CCCC(=O)Nc1nc(C)c(-c2csc(Nc3ccc(Cl)cc3)n2)s1,"inconclusive: 29.1 µM [falling, single point]",
COc1ccc(-n2c(SCC(=O)Nc3cc(C)on3)nc3ccccc3c2=O)cc1Cl,"inconclusive: 14.6 µM [falling, partial curve, poor fit]",
CCOc1ccccc1NC(=O)NNC(=O)c1ccc2ccccc2c1,,inactive: -24.8%
Cc1ccc(CNC(=O)CSc2c3c(nc4ccc(Cl)cc24)CCCC3)o1,"inconclusive: 16.4 µM [falling, partial curve, poor fit]",
O=S(=O)(Nc1cc(Cl)cc(Cl)c1)N1CCOCC1,"inconclusive: 16.4 µM [falling, partial curve, poor fit]",
CCn1cc(CN2CCC(C(=O)Nc3cccc(-c4cccc(Cl)c4)c3)CC2)cn1,"inconclusive: 4.11 µM [falling, single point]",
CCOC(=O)c1cc(C#N)c(Oc2cccc(C(F)(F)F)c2)nc1-c1ccccc1,"inconclusive: 1.46 µM [falling, partial curve]",
CCn1c2ccc(F)cc2c2nnc(SCCN3CCCCC3)nc21,inactive,
COc1ccc2nc(/C=N/NC(=O)[C@H](CCSC)NC(=O)OC(C)(C)C)ccc2c1,,inactive: -17%
COc1ccc(C(=O)Cn2nnc(-c3ccccc3NC(=O)C3CC3)n2)cc1,"inconclusive: 1.64 µM [falling, single point]",
Cc1cc(C)c2c(C)c(C(=O)N3CCC(c4nc5ccccc5s4)CC3)oc2c1,,inactive: -21.1%
O=C(Nc1ccccc1)OC1CC2CC1C1CCCC21 (stereo unspecified),"inconclusive: 20.6 µM [activator, partial curve]",
Cc1cc(-c2nnc3n2N=C(c2ccc(-c4ccccc4)cc2)CS3)n[nH]1,"inconclusive: 29.1 µM [falling, single point]",
CCOC(=O)c1c(C)[nH]c(C)c1S(=O)(=O)NCC(=O)N(C)c1ccc(C)c(C)c1,"inconclusive: 18.4 µM [activator, partial curve, poor fit]",
N/C(Cc1ccccc1)=N\OC(=O)c1cccc2ccccc12,"inconclusive: 0.517 µM [activator, full curve]",
NC(=S)N/N=C\c1c(OCc2ccccc2Cl)ccc2ccccc12,"inconclusive: 8.2 µM [falling, partial curve]",
Cc1nc(-c2ccccn2)sc1C(=O)O,"inconclusive: 20.6 µM [activator, single point]",
CC(C)(C)c1ccc(NC(=O)N2CCN(c3ccc([N+](=O)[O-])cn3)CC2)cc1,active: 13 µM,
COc1ccc2c(c1)[C@H]1[C@H](CO2)[C@H](c2ccccc2)[C@]2(C)C(=O)Nc3cc(C)ccc3C(=O)N12,"inconclusive: 2.59 µM [activator, single point]",
O=C(CSc1ncnc2c1oc1ccccc12)Nc1cccc(Cl)c1,"inconclusive: 29.1 µM [falling, partial curve, poor fit]",

# Structures above containing a cyano group:
SMILES,Potency,"activity change, negative = inhibition"
CCc1c(C#N)c(SCc2c(C)noc2C)nc2c1C(=O)CC(C)(C)C2,"inconclusive: 18.4 µM [falling, single point]",
CCOC(=O)c1cc(C#N)c(Oc2cccc(C(F)(F)F)c2)nc1-c1ccccc1,"inconclusive: 1.46 µM [falling, partial curve]",
